Over roughly 33,000 sequences, “E-score (-0.5 to 0.5)” has its median near -0.0034; the highest 2% begin near 0.25. The list shows a part of the results.

From the supplement of paper PMC3334620 come the findings set out here.

The test has as its target T1, Yap3 (UniProt P38749).
T1 sequence: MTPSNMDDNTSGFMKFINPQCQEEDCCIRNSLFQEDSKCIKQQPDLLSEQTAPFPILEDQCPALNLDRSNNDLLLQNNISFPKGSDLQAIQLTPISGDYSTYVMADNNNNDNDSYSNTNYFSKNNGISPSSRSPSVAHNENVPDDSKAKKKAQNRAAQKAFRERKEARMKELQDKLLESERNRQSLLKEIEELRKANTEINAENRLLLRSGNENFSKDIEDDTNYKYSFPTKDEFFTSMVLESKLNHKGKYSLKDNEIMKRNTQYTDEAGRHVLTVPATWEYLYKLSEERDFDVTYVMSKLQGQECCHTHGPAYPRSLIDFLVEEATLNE
Nature of the test: PBM E-score (8-mer binding enrichment) (E-score (-0.5 to 0.5)); higher = stronger / more preferred TF binding. The note with it: protein concentration: 100 nM; construct: GST-full length. The gist of the method:
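Yeast transcription factors carrying a GST tag, as full-length proteins or DNA-binding domains, were produced by PURExpress in vitro transcription/translation. About 100-200 nM protein was applied to universal all-10-mer Agilent arrays, double-stranded by primer extension on fresh or once-stripped slides. Bound protein was detected with fluorescent anti-GST, and scans were normalised with masliner. The Universal PBM Analysis Suite gave each ungapped eight-base word, pooled with its reverse complement, an E-score, a modified Wilcoxon-Mann-Whitney statistic.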
AGCGAACC: the “PBM E-score” value is -0.127.

Turning to ACGGTAGG, the “PBM E-score” value was -0.11. For the sequence AGGTCACT, the “PBM E-score” value was -0.244. For ACGGTTGG, the “PBM E-score” value is -0.036. The figure for CTCAACCA is -0.0178. Take CGACCCCA: the “PBM E-score” value was -0.16. The figure for AGGCTAGA is -0.194; for CCTTCTAG it is -0.16.

Consider CTGTCTGC, for which the “PBM E-score” value was -0.256. The figure for ACCAGTAC is 0.00976. The figure for CACGCACC is -0.166; for ACTAGGCT it is -0.0412. Consider AGGGCGCC, for which the “PBM E-score” value is -0.257. The figure for CATACGGC is 0.0866; for GATATAGA it is 0.154; for AATCATCC it is 0.0464. Consider AAACCGTA, for which the “PBM E-score” value is -0.092.

With ATTCGCTA, the “PBM E-score” value is 0.00111. The figure for CGATAGCA is -0.0895; for ATGATCTA it is 0.15; for CTCATCAA it is 0.0304. Take AACCTACC: the “PBM E-score” value was -0.0143. The figure for AACCATCC is -0.0788; for AATGAACG it is 0.114. The figure for AATACGAG is 0.133; for AACAAAAT it is 0.254; for CAGGCTCC it is -0.149. On to CGTATTAA, for which the “PBM E-score” value is 0.0173. Consider ACCCTATG, for which the “PBM E-score” value is -0.00051. The figure for ACAGTCCG is -0.124. Consider GCGGGGCC, for which the “PBM E-score” value was -0.322. As for CAGCCCAC, the “PBM E-score” value is -0.187. The figure for ACTCTCGA is 0.124; for AGCTAGGG it is -0.00712; for CTTCTTAC it is -0.0371. Turning to GCCAATAA, the “PBM E-score” value was found to be 0.235. With AAAGCTGT, the “PBM E-score” value stood at 0.15. The figure for ACTATCGC is -0.03; for ACTAAGTC it is 0.00495. For CCCGGCCC, the “PBM E-score” value is -0.405. The figure for TATAAAGA is 0.166. Turning to ATATAATC, the “PBM E-score” value was 0.157. The figure for AACCACGG is -0.0913. The figure for GCCTTCCC is -0.356; for TCGTACGA it is 0.0662.

Turning to GCATGGCC, the “PBM E-score” value was -0.101.

Regarding CGGCATTA, the “PBM E-score” value came to 0.21. Turning to ATTGGGCC, the “PBM E-score” value stood at 0.12. On to CCCAGCGG, for which the “PBM E-score” value is -0.286. The figure for CCGCTCTA is -0.0195. Turning to AGGAGGAC, the “PBM E-score” value was -0.357.

With CATAGTTC, the “PBM E-score” value came out at 0.03.

In the case of CGAACACC, the “PBM E-score” value is -0.0337. With CAATGGGG, the “PBM E-score” value is -0.0335. Consider CTGGGGGA, for which the “PBM E-score” value was -0.308. The figure for ATTATAGC is 0.0728; for CTACATAC it is 0.157; for CGGCGAGA it is 0.0492. The figure for ATGCCACC is -0.233; for ACGATACT it is -0.0359. Turning to ATGCGTAG, the “PBM E-score” value is -0.0528. Regarding CCTGCATC, the “PBM E-score” value was -0.0897.

Take AATGCCAG: the “PBM E-score” value is -0.00344. As to GTAGTAGA, the “PBM E-score” value was -0.053. The figure for CAACAACA is 0.251. Take TATATGCA: the “PBM E-score” value is 0.106. Take CGCCAGCA: the “PBM E-score” value is -0.234. On to TAGTCGAA, for which the “PBM E-score” value is 0.11.

As for AGTACGAA, the “PBM E-score” value is 0.245. Take CAGTGGAC: the “PBM E-score” value is -0.093.

CGGAGCAG: the “PBM E-score” value was -0.191. Take ATGCCTCA: the “PBM E-score” value is -0.0667. The figure for GCTGGCGA is -0.151; for CACGTTAC it is -0.0134. For the sequence CTTACTTA, the “PBM E-score” value was found to be 0.113. The figure for CTACACTA is -0.0184; for GGTGTAAA it is 0.0305; for GGCTCTGA it is -0.03. The figure for GTGGGGCA is -0.0676; for ATCACTTA it is 0.145. The figure for ATTAATCG is 0.191; for TCTCATCA it is 0.208. On to CTGTAGGC, for which the “PBM E-score” value was -0.0117. As to AATTGTGG, the “PBM E-score” value was determined as 0.0214.

ATAGTTAC: the “PBM E-score” value was 0.106. For AACCAACC, the “PBM E-score” value is -0.0345.
